PubChem BioAssay AID1259425 | University of Nebraska Medical Center | 2018
This is one part, drawn at random, of about 14,000 deposited reagents. Reagent sequences are not shown. Not given: the time to read-out.

- Purpose: 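Seek colon cancer weak points whose silencing resembles KSR1 loss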 (primary screen)
- Cells: HCT116 human colon cancer cells
- Reagent: siRNA pool against human genes, 50 nM siRNA
- Detection: 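mRNA of six signature genes measured together by branched-DNA assay after 50 nM siRNA pool, blank removed, divided by geometric mean of two housekeeping genes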
- Reading the numbers: BNIP3L mRNA: higher = more BNIP3L transcript after knockdown; NDRG1 mRNA: higher = more NDRG1 transcript after knockdown; BNIP3 mRNA: higher = more BNIP3 transcript after knockdown; ALDOC mRNA: higher = more ALDOC transcript after knockdown; ACSL5 mRNA: higher = more ACSL5 transcript after knockdown

no.	gene symbol	BNIP3L mRNA, set 1	NDRG1 mRNA, set 1	BNIP3 mRNA, set 1	ALDOC mRNA, set 1	ACSL5 mRNA, set 1
1	RTBDN (retbindin)	0.229	0.642	0.326	0.126	0.492
2	OR7E35P (olfactory receptor family 7 subfamily E member 35 pseudogene)	0.0911	0.17	0.311	0.0141	0.163
3	PTH1R (parathyroid hormone 1 receptor)	0.0913	0.0603	0.379	0.0248	0.103
4	FAABTP (fatty acid amide binding transmembrane protein)	0.0892	0.129	0.268	0.0365	0.0988
5	GZF1 (GDNF inducible zinc finger protein 1)	0.0906	0.388	0.27	0.0151	0.285
6	PPP2R5C (protein phosphatase 2 regulatory subunit B'gamma)	0.0812	0.114	0.27	0.0254	0.106
7	NELFB (negative elongation factor complex member B)	0.0873	0.204	0.505	0.0364	0.221
8	GPR3 (G protein-coupled receptor 3)	0.144	0.388	0.197	0.026	0.164
9	PMCHL1 (pro-melanin concentrating hormone like 1 (pseudogene))	0.162	0.253	0.37	0.0319	0.234
10	RAD17 (RAD17 checkpoint clamp loader component)	0.0613	0.097	0.24	0.00852	0.128
11	PCDHB5 (protocadherin beta 5)	0.169	0.0802	0.276	0.00975	0.0741
12	CHST4 (carbohydrate sulfotransferase 4)	0.211	0.256	0.296	0.0723	0.213
13	SPRR1B (small proline rich protein 1B)	0.14	0.692	0.584	0.0396	0.0425
14	SLC35H1	0.143	0.0799	0.296	0.0111	0.191
15	PCDHGA12 (protocadherin gamma subfamily A, 12)	0.0707	0.174	0.344	0.00965	0.127
16	HPCAL4 (hippocalcin like 4)	0.0999	0.269	0.368	0.0747	0.198
17	PHKG2 (phosphorylase kinase catalytic subunit gamma 2)	0.0764	0.138	0.306	0.0106	0.174
18	CRLS1 (cardiolipin synthase 1)	0.154	0.212	0.333	0.0501	0.0692
19	PASK (PAS domain containing serine/threonine kinase)	0.0732	0.141	0.328	0.00414	0.215
20	ERBB3 (erb-b2 receptor tyrosine kinase 3)	0.216	0.0623	0.796	0.0343	0.189
21	DCN (decorin)	0.124	0.129	0.232	0.019	0.185
22	WWP1 (WW domain containing E3 ubiquitin protein ligase 1)	0.0613	0.0706	0.31	0.0135	0.0702
23	TNNC1 (troponin C1, slow skeletal and cardiac type)	0.146	0.133	0.355	0.0313	0.144
24	USP2 (ubiquitin specific peptidase 2)	0.113	0.227	0.337	0.0224	0.171
25	P2RX4 (purinergic receptor P2X 4)	0.0815	0.118	0.278	0.0178	0.0848
26	EIF3H (eukaryotic translation initiation factor 3 subunit H)	0.0753	0.0569	0.22	0.00954	0.148
27	PRPF40A (pre-mRNA processing factor 40A)	0.383	2.57	0.663	0.0856	0.288
28	PPCS (phosphopantothenoylcysteine synthetase)	0.101	0.269	0.263	0.0557	0.296
29	TRPC6	0.132	0.293	0.38	0.0104	0.194
30	ZDHHC1 (zDHHC palmitoyltransferase 1)	0.076	0.772	0.53	0.0269	0.555
31	NEFM (neurofilament medium chain)	0.116	0.234	0.231	0.0294	0.127
32	PAX7 (paired box 7)	0.061	0.126	0.302	0.0139	0.189
33	PPP3CA (protein phosphatase 3 catalytic subunit alpha)	0.0831	0.282	0.281	0.0391	0.159
34	STXBP2 (syntaxin binding protein 2)	0.0871	0.334	0.299	0.0202	0.113
35	CARD11 (caspase recruitment domain family member 11)	0.199	0.165	0.314	0.0471	0.332
36	ZNF337 (zinc finger protein 337)	0.192	0.484	0.521	0.0479	0.198
37	ACTN3 (actinin alpha 3)	0.219	0.365	0.436	0.0267	0.236
38	RFTN1 (raftlin, lipid raft linker 1)	0.0378	0.485	0.367	0.0397	0.298

Look-ups from above.
OR7E35P (olfactory receptor family 7 subfamily E member 35 pseudogene), BNIP3L mRNA, set 1 = 0.0911
Under “NDRG1 mRNA, set 1”, NEFM (neurofilament medium chain) reads 0.234
FAABTP (fatty acid amide binding transmembrane protein), NDRG1 mRNA, set 1: 0.129
RFTN1 (raftlin, lipid raft linker 1), BNIP3L mRNA, set 1 → 0.0378
Under “ALDOC mRNA, set 1”, DCN (decorin) is entered as 0.019

Further records:
no.	gene symbol	BNIP3L mRNA, set 1	NDRG1 mRNA, set 1	BNIP3 mRNA, set 1	ALDOC mRNA, set 1	ACSL5 mRNA, set 1
39	ELMOD1 (ELMO domain containing 1)	0.0858	0.163	0.267	0.00604	0.154
40	PIKFYVE (phosphoinositide kinase, FYVE-type zinc finger containing)	0.123	0.236	0.264	0.0271	0.174
41	PLD2 (phospholipase D2)	0.258	1.51	0.396	0.0403	0.228
42	PBOV1 (prostate and breast cancer overexpressed 1)	0.164	0.554	0.294	0.0288	0.592
43	MAN2B2 (mannosidase alpha class 2B member 2)	0.062	0.207	0.115	0.0323	0.16
44	GJB3 (gap junction protein beta 3)	0.0459	0.168	0.308	0.0177	0.125
45	SLC17A2	0.1	0.275	0.266	0.0158	0.21
46	CLASP1 (cytoplasmic linker associated protein 1)	0.121	0.0739	0.279	0.00493	0.373
47	COL15A1 (collagen type XV alpha 1 chain)	0.114	0.169	0.186	0.0425	0.173
48	COL4A5 (collagen type IV alpha 5 chain)	0.0949	0.308	0.343	0.0472	0.247
49	IL36G (interleukin 36 gamma)	0.0473	0.112	0.261	0.0236	0.147
50	IGBP1 (immunoglobulin binding protein 1)	0.046	0.236	0.167	0.0211	0.117
51	GAGE7 (G antigen 7)	0.202	0.554	0.327	0.0303	0.277
52	ANXA6 (annexin A6)	0.0989	0.149	0.445	0.0381	0.134
53	A1BG (alpha-1-B glycoprotein)	0.0525	0.215	0.259	0.021	0.0674
54	APOD (apolipoprotein D)	0.121	0.114	0.276	0.0143	0.151
55	RNF170 (ring finger protein 170)	0.0973	0.236	0.275	0.0712	0.218
56	PIGR (polymeric immunoglobulin receptor)	0.0941	0.108	0.353	0.0268	0.107
57	MTHFSD (methenyltetrahydrofolate synthetase domain containing)	0.136	0.146	0.175	0.0171	0.181
58	SNPH (syntaphilin)	0.115	0.132	0.197	0.0171	0.161
59	TEX10 (testis expressed 10)	0.13	0.183	0.349	0.0425	0.515
60	ALDH7A1 (aldehyde dehydrogenase 7 family member A1)	0.0844	0.141	0.423	0.0238	0.157
61	FPR2 (formyl peptide receptor 2)	0.193	0.568	0.382	0.0592	0.152
62	ZNF10 (zinc finger protein 10)	0.101	0.0696	0.333	0.00721	0.142
63	PRDM8 (PR/SET domain 8)	0.146	0.21	0.316	0.0134	0.0884
